At least one structure is not confirmed: it was looked up by name or label, or the drawing left a doubt.
Legend:
Twist1 = Twist1 phosphorylation in Twist1-expressing cells upon serum stimulation; assay type: cell-based; details: PI3K/PKB inhibitors
Twist1-expressing cells = assay: Migration/invasion assays of Twist1-expressing cells upon serum stimulation; assay type: cell-based; details: PI3K/PKB inhibitors
Twist-1 at S123 = assay: Twist-1 S123 phosphorylation in cells, detected by anti-Twist-P-Ser123 antibody; assay type: cell-based; details: stimulation of cells
Twist-1 = Twist-1 phosphorylation in serum-stimulated HEK293 cells (immunoprecipitation, Western blot with pan-PKB phosphosubstrate antibody); assay type: cell-based, Human; details: pre-treatment of serum-stimulated HEK293 cells; inhibitor added 30 min prior to stimulation

| Compound | Twist1 phosphorylation (Twist1) | migration (Twist1-expressing cells) | phosphorylation of Twist-1 at S123 (Twist-1 at S123) | phospho-signal of immunoprecipitated Twist-1 (pan-PKB phosphosubstrate antibody) (Twist-1) |
| --- | --- | --- | --- | --- |
| COC[C@H]1OC(=O)c2coc3c2[C@@]1(C)C1=C(C3=O)[C@@H]2CCC(=O)[C@@]2(C)C[C@H]1OC(C)=O [Wortmannin] | abolished | strongly retard |  |  |
| C=C[C@@]1(C)CC(=O)[C@]2(O)[C@@]3(C)[C@@H](O)CCC(C)(C)[C@@H]3[C@H](O)[C@H](OC(C)=O)[C@@]2(C)O1 [forskolin] |  |  | resulted in phosphorylation of Twist-1 at S123 |  |
| O=c1cc(N2CCOCC2)oc2c(-c3ccccc3)cccc12 [LY 294002] | abolished | strongly retard |  | strong reduction |

Source: patent publication US20120213801A1, “Phosphorylated Twist1 and cancer” (priority 2009, published 2012)
